Measured values as given in paper doi:10.1101/458760.
No constants are given. Whether binding was seen depends on the method and setting. In cells and extracts the contact can be indirect. Some results given as binding are weak or reduced against the parent protein; the word gives no strength.

The chains behind the UniProt entries cited, without tags or fusion partners. Residues count along the entry.
UniProt P11835, residues 24-771: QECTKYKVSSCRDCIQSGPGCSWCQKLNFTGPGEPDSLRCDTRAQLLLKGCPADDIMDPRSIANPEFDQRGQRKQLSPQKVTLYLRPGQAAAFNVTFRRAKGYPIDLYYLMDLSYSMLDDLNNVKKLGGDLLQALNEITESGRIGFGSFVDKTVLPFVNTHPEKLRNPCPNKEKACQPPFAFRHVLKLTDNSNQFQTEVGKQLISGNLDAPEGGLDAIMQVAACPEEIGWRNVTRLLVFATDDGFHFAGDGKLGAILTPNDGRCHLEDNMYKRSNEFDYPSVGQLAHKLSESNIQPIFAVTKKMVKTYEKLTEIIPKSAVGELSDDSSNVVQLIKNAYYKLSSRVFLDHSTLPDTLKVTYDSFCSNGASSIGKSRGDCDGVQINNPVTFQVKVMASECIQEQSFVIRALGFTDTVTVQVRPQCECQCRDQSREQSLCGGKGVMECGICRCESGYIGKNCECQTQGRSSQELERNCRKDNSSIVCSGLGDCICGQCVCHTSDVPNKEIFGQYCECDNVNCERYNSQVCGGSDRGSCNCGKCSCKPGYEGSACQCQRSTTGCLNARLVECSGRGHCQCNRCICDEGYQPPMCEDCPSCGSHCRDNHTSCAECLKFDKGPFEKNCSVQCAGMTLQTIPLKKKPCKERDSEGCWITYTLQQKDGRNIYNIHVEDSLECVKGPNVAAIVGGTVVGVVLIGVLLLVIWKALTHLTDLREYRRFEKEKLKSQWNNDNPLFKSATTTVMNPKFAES

Biological target: CD18 (mouse (endogenous in neutrophils)) (UniProt P11835)
Assay: FRET or BRET

B1: Ly6G (protein, UniProt P35461 27-105)
chain: LECYNCIGVPPETSCNTTTCPFSDGFCVALEIEVIVDSHRSKVKSNLCLPICPTTLDNTEITGNAVNVKTYCCKEDLCN
With B1 the binding was “binds”.
